# This is one part of the list.
# B1: B936 (Bifidobacterium sp) (protein)
# chain: MKNWKKAIALVASAAALVSVAACGPSNAGGSSDSGKKTVGFVAVGPEGGFRTANEKDIQKAFEDAGFDLTYSPTQNNDQQKQIQAFNKFVNDEVDAIILSSTEDSGWDDSLKKAAEAEIPVFTVDRNVDVKDAEAKKAIVAHIGPSNVWCGEQAAEFVNKNFPDGANGFILEGPAGLSVVKDRGTGWGNKVASNVKVLESQSANWSTDEAKTVTAGLLDKYKSDNPQFIFAQNDEMGLGAAQAVDAAGLKGKVKIITIDGTKNALQALVDGDLSYVIEYNPIFGKETAQAVKDYLDGKTVEKDIEIESKTFDAASAKEALDNNTRAY
# Columns and labels:
# Test in all cases: glycan array binding signal (z-score within array); higher = stronger binding
# Conditions in all cases: glycan notation: IUPAC condensed, linker removed
# [1] = target: Fuc(a1-2)[Gal(a1-3)]Gal(b1-4)GlcNAc(b1-2)Man(a1-3)[Fuc(a1-2)[Gal(a1-3)]Gal(b1-4)GlcNAc(b1-2)Man(a1-6)]Man(b1-4)GlcNAc(b1-4)[Fuc(a1-6)]GlcNAc
# Method in brief: (§1)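 The Consortium for Functional Glycomics database supplied 3228 glycan arrays, of which those lacking an available protein sequence were dropped. The binding signal, a within-array Z-score, was averaged across arrays of the same protein sequence and across linkers. Negative scores can be read as non-binding.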
# [2] = target: Fuc(a1-2)[Gal(a1-3)]Gal(b1-4)GlcNAc(b1-3)GalNAc
# Method in brief: as §1
# [3] = target: Fuc(a1-2)[Gal(a1-3)]Gal(b1-4)GlcNAc(b1-3)[Fuc(a1-2)[Gal(a1-3)]Gal(b1-4)GlcNAc(b1-6)]GalNAc
# Method in brief: as §1
# [4] = target: Fuc(a1-2)[Gal(a1-3)]Gal(b1-4)GlcNAc(b1-6)GalNAc
# Method in brief: as §1
# [5] = target: Fuc(a1-2)[Gal(a1-3)]Gal(b1-4)[Fuc(a1-3)]Glc
# Method in brief: as §1
# [6] = target: Fuc(a1-2)[Gal(a1-3)]Gal(b1-4)[Fuc(a1-3)]GlcNAc
# Method in brief: as §1
# [7] = target: Fuc(a1-2)[Gal(a1-3)]Gal(b1-4)[Fuc(a1-3)]GlcNAc(b1-3)GalNAc
# Method in brief: as §1
# [8] = target: Fuc(a1-2)[Gal(a1-4)]Gal(b1-4)GlcNAc
# Method in brief: as §1
# [9] = target: Fuc(a1-2)[GalNAc(a1-3)]Gal
# Method in brief: as §1
# [10] = target: Fuc(a1-2)[GalNAc(a1-3)]Gal(b1-3)GalNAc(a1-3)[Fuc(a1-2)]Gal(b1-4)GlcNAc
# Method in brief: as §1
# [11] = target: Fuc(a1-2)[GalNAc(a1-3)]Gal(b1-3)GalNAc(b1-3)Gal(a1-4)Gal(b1-4)Glc
# Method in brief: as §1
# [12] = target: Fuc(a1-2)[GalNAc(a1-3)]Gal(b1-3)GlcNAc
# Method in brief: as §1
# [13] = target: Fuc(a1-2)[GalNAc(a1-3)]Gal(b1-3)GlcNAc(b1-2)Man(a1-3)[Fuc(a1-2)[GalNAc(a1-3)]Gal(b1-3)GlcNAc(b1-2)Man(a1-6)]Man(b1-4)GlcNAc(b1-4)GlcNAc
# Method in brief: as §1
# [14] = target: Fuc(a1-2)[GalNAc(a1-3)]Gal(b1-3)GlcNAc(b1-2)Man(a1-3)[Fuc(a1-2)[GalNAc(a1-3)]Gal(b1-3)GlcNAc(b1-2)Man(a1-6)]Man(b1-4)GlcNAc(b1-4)[Fuc(a1-6)]GlcNAc
# Method in brief: as §1
# [15] = target: Fuc(a1-2)[GalNAc(a1-3)]Gal(b1-3)GlcNAc(b1-3)GalNAc
# Method in brief: as §1
# [16] = target: Fuc(a1-2)[GalNAc(a1-3)]Gal(b1-3)GlcNAc(b1-6)GalNAc
# Method in brief: as §1
# [17] = target: Fuc(a1-2)[GalNAc(a1-3)]Gal(b1-4)Glc
# Method in brief: as §1
# [18] = target: Fuc(a1-2)[GalNAc(a1-3)]Gal(b1-4)GlcNAc
# Method in brief: as §1
# [19] = target: Fuc(a1-2)[GalNAc(a1-3)]Gal(b1-4)GlcNAc(b1-2)Man
# Method in brief: as §1
# [20] = target: Fuc(a1-2)[GalNAc(a1-3)]Gal(b1-4)GlcNAc(b1-2)Man(a1-3)[Fuc(a1-2)[GalNAc(a1-3)]Gal(b1-4)GlcNAc(b1-2)Man(a1-6)]Man(b1-4)GlcNAc(b1-4)GlcNAc
# Method in brief: as §1
# [21] = target: Fuc(a1-2)[GalNAc(a1-3)]Gal(b1-4)GlcNAc(b1-2)Man(a1-3)[Fuc(a1-2)[GalNAc(a1-3)]Gal(b1-4)GlcNAc(b1-2)Man(a1-6)]Man(b1-4)GlcNAc(b1-4)[Fuc(a1-6)]GlcNAc
# Method in brief: as §1
# [22] = target: Fuc(a1-2)[GalNAc(a1-3)]Gal(b1-4)GlcNAc(b1-3)Gal(b1-4)GlcNAc
# Method in brief: as §1
# [23] = target: Fuc(a1-2)[GalNAc(a1-3)]Gal(b1-4)GlcNAc(b1-3)Gal(b1-4)GlcNAc(b1-3)Gal(b1-4)GlcNAc
# Method in brief: as §1
# [24] = target: Fuc(a1-2)[GalNAc(a1-3)]Gal(b1-4)GlcNAc(b1-3)GalNAc
# Method in brief: as §1
# [25] = target: Fuc(a1-2)[GalNAc(a1-3)]Gal(b1-4)GlcNAc(b1-3)[Fuc(a1-2)[GalNAc(a1-3)]Gal(b1-4)GlcNAc(b1-6)]GalNAc
# Method in brief: as §1
# [26] = target: Fuc(a1-2)[GalNAc(a1-3)]Gal(b1-4)GlcNAc(b1-6)GalNAc
# Method in brief: as §1
# [27] = target: Fuc(a1-2)[GalNAc(a1-3)]Gal(b1-4)[Fuc(a1-3)]GlcNAc
# Method in brief: as §1
# [28] = target: Fuc(a1-2)[GalNAc(a1-3)]Gal(b1-4)[Fuc(a1-3)]GlcNAc(b1-3)GalNAc
# Method in brief: as §1
# [29] = target: Fuc(a1-2)[GalNAc(a1-4)]Gal(b1-4)GlcNAc
# Method in brief: as §1
# [30] = target: Fuc(a1-2)[GalNAc(b1-3)]Gal
# Method in brief: as §1
# Fuc(a1-3)GlcNAc = target: Fuc(a1-3)GlcNAc
# Method in brief: as §1
# [31] = target: Fuc(a1-3)[Gal(b1-4)]Glc6S
# Method in brief: as §1
# [32] = target: Fuc(a1-3)[Gal(b1-4)]GlcNAc
# Method in brief: as §1
# [33] = target: Fuc(a1-3)[Gal(b1-4)]GlcNAc(b1-2)Man
# Method in brief: as §1
# [34] = target: Fuc(a1-3)[Gal(b1-4)]GlcNAc(b1-2)Man(a1-3)[Fuc(a1-3)[Gal(b1-4)]GlcNAc(b1-2)Man(a1-6)]Man(b1-4)GlcNAc(b1-4)GlcNAc
# Method in brief: as §1
# [35] = target: Fuc(a1-3)[Gal(b1-4)]GlcNAc(b1-2)Man(a1-3)[Fuc(a1-3)[Gal(b1-4)]GlcNAc(b1-2)Man(a1-6)]Man(b1-4)GlcNAc(b1-4)[Fuc(a1-6)]GlcNAc
# Method in brief: as §1
# [36] = target: Fuc(a1-3)[Gal(b1-4)]GlcNAc(b1-3)Gal(b1-3)[Fuc(a1-4)]GlcNAc
# Method in brief: as §1
# [37] = target: Fuc(a1-3)[Gal(b1-4)]GlcNAc(b1-3)Gal(b1-4)[Fuc(a1-3)]GlcNAc
# Method in brief: as §1
# [38] = target: Fuc(a1-3)[Gal(b1-4)]GlcNAc(b1-3)Gal(b1-4)[Fuc(a1-3)]GlcNAc(b1-3)Gal(b1-4)[Fuc(a1-3)]GlcNAc
# Method in brief: as §1
# [39] = target: Fuc(a1-3)[Gal(b1-4)]GlcNAc(b1-3)GalNAc
# Method in brief: as §1
# [40] = target: Fuc(a1-3)[Gal(b1-4)]GlcNAc(b1-6)GalNAc
# Method in brief: as §1
# [41] = target: Fuc(a1-3)[Gal(b1-4)]GlcNAc(b1-6)[Gal(b1-3)GlcNAc(b1-3)]Gal(b1-4)Glc
# Method in brief: as §1
# [42] = target: Fuc(a1-3)[Gal(b1-4)]GlcNAc6S
# Method in brief: as §1
# [43] = target: Fuc(a1-3)[Gal3S(b1-4)]Glc
# Method in brief: as §1
# [44] = target: Fuc(a1-3)[Gal3S(b1-4)]GlcNAc
# Method in brief: as §1
# [45] = target: Fuc(a1-3)[Gal3S(b1-4)]GlcNAc6S
# Method in brief: as §1
# [46] = target: Fuc(a1-3)[GalNAc(b1-4)]GlcNAc
# Method in brief: as §1
# [47] = target: Fuc(a1-3)[GalNAc(b1-4)]GlcNAc6S
# Method in brief: as §1
# Fuc(a1-4)GlcNAc = target: Fuc(a1-4)GlcNAc
# Method in brief: as §1
# Fuc(b1-3)GlcNAc = target: Fuc(b1-3)GlcNAc
# Method in brief: as §1
# Gal(a1-2)Gal = target: Gal(a1-2)Gal
# Method in brief: as §1
# Gal(a1-3)Gal = target: Gal(a1-3)Gal
# Method in brief: as §1
# Gal(a1-3)Gal(b1-3)GlcNAc = target: Gal(a1-3)Gal(b1-3)GlcNAc
# Method in brief: as §1
# [48] = target: Gal(a1-3)Gal(b1-3)GlcNAc(b1-2)Man
# Method in brief: as §1
# [49] = target: Gal(a1-3)Gal(b1-3)GlcNAc(b1-2)Man(a1-3)[Gal(a1-3)Gal(b1-3)GlcNAc(b1-2)Man(a1-6)]Man(b1-4)GlcNAc(b1-4)GlcNAc
# Method in brief: as §1
# [50] = target: Gal(a1-3)Gal(b1-3)GlcNAc(b1-3)GalNAc
# Method in brief: as §1
# [51] = target: Gal(a1-3)Gal(b1-3)GlcNAc(b1-6)GalNAc
# Method in brief: as §1
# [52] = target: Gal(a1-3)Gal(b1-3)[Fuc(a1-4)]GlcNAc(b1-2)Man(a1-3)[Gal(a1-3)Gal(b1-3)[Fuc(a1-4)]GlcNAc(b1-2)Man(a1-6)]Man(b1-4)GlcNAc(b1-4)GlcNAc
# Method in brief: as §1
# Gal(a1-3)Gal(b1-4)Glc = target: Gal(a1-3)Gal(b1-4)Glc
# Method in brief: as §1
# Gal(a1-3)Gal(b1-4)GlcNAc = target: Gal(a1-3)Gal(b1-4)GlcNAc
# Method in brief: as §1
binder,measurement,setting,value
B1,glycan array binding signal (z-score),[1],-0.396
same,glycan array binding signal (z-score),[2],0.021
same,glycan array binding signal (z-score),[3],-0.277
same,glycan array binding signal (z-score),[4],-0.139
same,glycan array binding signal (z-score),[5],-0.416
same,glycan array binding signal (z-score),[6],-0.405
same,glycan array binding signal (z-score),[7],-0.217
same,glycan array binding signal (z-score),[8],0.084
same,glycan array binding signal (z-score),[9],-0.496
same,glycan array binding signal (z-score),[10],-0.358
same,glycan array binding signal (z-score),[11],-0.815
same,glycan array binding signal (z-score),[12],-0.641
same,glycan array binding signal (z-score),[13],-0.417
same,glycan array binding signal (z-score),[14],1.58
same,glycan array binding signal (z-score),[15],0.325
same,glycan array binding signal (z-score),[16],0.424
same,glycan array binding signal (z-score),[17],-0.128
same,glycan array binding signal (z-score),[18],-0.587
same,glycan array binding signal (z-score),[19],-0.733
same,glycan array binding signal (z-score),[20],-0.182
same,glycan array binding signal (z-score),[21],1.77
same,glycan array binding signal (z-score),[22],0.011
same,glycan array binding signal (z-score),[23],-0.293
same,glycan array binding signal (z-score),[24],0.342
same,glycan array binding signal (z-score),[25],-0.085
same,glycan array binding signal (z-score),[26],0.289
same,glycan array binding signal (z-score),[27],0.653
same,glycan array binding signal (z-score),[28],-0.006
same,glycan array binding signal (z-score),[29],0.289
same,glycan array binding signal (z-score),[30],0.25
same,glycan array binding signal (z-score),Fuc(a1-3)GlcNAc,-0.639
same,glycan array binding signal (z-score),[31],0.442
same,glycan array binding signal (z-score),[32],-0.143
same,glycan array binding signal (z-score),[33],-0.03
same,glycan array binding signal (z-score),[34],0.328
same,glycan array binding signal (z-score),[35],0.198
same,glycan array binding signal (z-score),[36],-1.23
same,glycan array binding signal (z-score),[37],-0.555
same,glycan array binding signal (z-score),[38],-0.659
same,glycan array binding signal (z-score),[39],0.323
same,glycan array binding signal (z-score),[40],-0.808
same,glycan array binding signal (z-score),[41],-0.786
same,glycan array binding signal (z-score),[42],-0.356
same,glycan array binding signal (z-score),[43],1.4
same,glycan array binding signal (z-score),[44],-0.416
same,glycan array binding signal (z-score),[45],0.399
same,glycan array binding signal (z-score),[46],0.207
same,glycan array binding signal (z-score),[47],-0.367
same,glycan array binding signal (z-score),Fuc(a1-4)GlcNAc,-0.936
same,glycan array binding signal (z-score),Fuc(b1-3)GlcNAc,0.48
same,glycan array binding signal (z-score),Gal(a1-2)Gal,0.741
same,glycan array binding signal (z-score),Gal(a1-3)Gal,-0.254
same,glycan array binding signal (z-score),Gal(a1-3)Gal(b1-3)GlcNAc,-0.318
same,glycan array binding signal (z-score),[48],-0.791
same,glycan array binding signal (z-score),[49],2.85
same,glycan array binding signal (z-score),[50],-0.167
same,glycan array binding signal (z-score),[51],0.552
same,glycan array binding signal (z-score),[52],2.05
same,glycan array binding signal (z-score),Gal(a1-3)Gal(b1-4)Glc,0.066
same,glycan array binding signal (z-score),Gal(a1-3)Gal(b1-4)GlcNAc,-0.375

# Nothing new here: entries from further up.
binder,measurement,setting,value
B1,glycan array binding signal (z-score),[15],0.325
same,glycan array binding signal (z-score),[16],0.424
same,glycan array binding signal (z-score),[17],-0.128
same,glycan array binding signal (z-score),[18],-0.587
same,glycan array binding signal (z-score),[19],-0.733
same,glycan array binding signal (z-score),[20],-0.182
same,glycan array binding signal (z-score),[21],1.77
same,glycan array binding signal (z-score),[22],0.011
same,glycan array binding signal (z-score),[23],-0.293
same,glycan array binding signal (z-score),[24],0.342
same,glycan array binding signal (z-score),[25],-0.085
same,glycan array binding signal (z-score),[26],0.289
same,glycan array binding signal (z-score),[27],0.653
same,glycan array binding signal (z-score),[28],-0.006

# Reference: the supplement of paper PMC8728848
